Results: article PMC10521137

Amino acid sequences for entries named in this document (tags omitted).
UniProt P22216: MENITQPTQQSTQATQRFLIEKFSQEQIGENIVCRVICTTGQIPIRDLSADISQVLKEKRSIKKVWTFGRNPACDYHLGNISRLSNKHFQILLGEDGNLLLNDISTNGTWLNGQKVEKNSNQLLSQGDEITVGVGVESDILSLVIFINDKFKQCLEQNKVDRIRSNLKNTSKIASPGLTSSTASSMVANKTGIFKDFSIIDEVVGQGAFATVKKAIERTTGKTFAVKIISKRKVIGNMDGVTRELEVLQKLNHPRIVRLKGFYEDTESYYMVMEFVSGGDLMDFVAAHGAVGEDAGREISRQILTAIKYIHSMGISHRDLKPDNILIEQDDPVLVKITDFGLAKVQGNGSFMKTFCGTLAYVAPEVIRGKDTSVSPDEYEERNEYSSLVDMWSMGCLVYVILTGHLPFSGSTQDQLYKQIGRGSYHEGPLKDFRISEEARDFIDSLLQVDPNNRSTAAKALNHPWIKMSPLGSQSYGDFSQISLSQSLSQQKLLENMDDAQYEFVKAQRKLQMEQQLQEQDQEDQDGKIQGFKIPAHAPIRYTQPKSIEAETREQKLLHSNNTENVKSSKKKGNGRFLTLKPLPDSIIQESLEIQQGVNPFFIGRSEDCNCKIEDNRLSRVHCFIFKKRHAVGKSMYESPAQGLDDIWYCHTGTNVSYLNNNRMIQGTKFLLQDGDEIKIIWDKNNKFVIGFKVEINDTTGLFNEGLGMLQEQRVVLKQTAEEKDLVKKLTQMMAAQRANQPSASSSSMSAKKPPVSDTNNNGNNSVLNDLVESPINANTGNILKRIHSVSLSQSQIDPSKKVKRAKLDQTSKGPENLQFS
UniProt P47035: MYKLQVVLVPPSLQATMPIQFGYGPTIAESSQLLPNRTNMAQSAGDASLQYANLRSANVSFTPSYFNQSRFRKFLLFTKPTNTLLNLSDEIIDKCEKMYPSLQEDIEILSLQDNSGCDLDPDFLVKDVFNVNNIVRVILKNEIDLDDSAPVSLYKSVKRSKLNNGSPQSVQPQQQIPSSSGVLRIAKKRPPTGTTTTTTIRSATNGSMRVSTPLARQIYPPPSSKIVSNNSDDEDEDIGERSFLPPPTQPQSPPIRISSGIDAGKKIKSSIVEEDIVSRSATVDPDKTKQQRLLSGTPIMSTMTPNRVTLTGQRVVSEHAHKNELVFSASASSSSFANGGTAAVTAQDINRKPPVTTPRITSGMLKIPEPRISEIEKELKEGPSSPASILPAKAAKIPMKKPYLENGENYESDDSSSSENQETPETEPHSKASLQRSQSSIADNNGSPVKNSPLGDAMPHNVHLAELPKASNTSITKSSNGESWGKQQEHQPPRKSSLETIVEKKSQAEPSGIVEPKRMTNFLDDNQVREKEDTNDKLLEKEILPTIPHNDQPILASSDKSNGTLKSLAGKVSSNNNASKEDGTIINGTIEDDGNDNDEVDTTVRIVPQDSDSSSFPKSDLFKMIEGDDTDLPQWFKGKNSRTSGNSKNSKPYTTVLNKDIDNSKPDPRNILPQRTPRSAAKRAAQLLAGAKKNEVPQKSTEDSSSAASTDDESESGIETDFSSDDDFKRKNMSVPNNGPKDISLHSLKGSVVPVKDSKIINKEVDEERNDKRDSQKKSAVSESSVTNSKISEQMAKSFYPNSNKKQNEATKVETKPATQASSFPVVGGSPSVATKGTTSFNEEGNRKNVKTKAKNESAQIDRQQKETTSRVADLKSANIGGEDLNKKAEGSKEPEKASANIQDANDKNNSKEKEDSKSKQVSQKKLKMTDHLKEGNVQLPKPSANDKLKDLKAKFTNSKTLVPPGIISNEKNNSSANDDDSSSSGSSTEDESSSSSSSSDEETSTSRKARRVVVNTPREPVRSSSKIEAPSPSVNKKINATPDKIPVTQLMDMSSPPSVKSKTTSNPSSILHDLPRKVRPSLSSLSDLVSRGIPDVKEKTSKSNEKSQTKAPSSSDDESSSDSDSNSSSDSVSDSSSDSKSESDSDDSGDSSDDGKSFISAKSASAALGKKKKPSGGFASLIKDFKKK

B1: Mrc1 (protein, UniProt P25588 1-1096)
chain: MDDALHALSSLTAKKRTTTYKKVAVPILDENDNTNGNGPNDIDNPPELTGNGFLFANATLNRVKNRLEGKKAPEQNHNNGKDRSENSLPTQLISNLYDGGEELEKSEVKDNSYSEKNVSSSFTQTQRIPVSIQQDKVFNVPIHSVNDGKPTQLIKEDGLVNETSQALKTPLTTGRPGATQRIDSSGATSQTQPIKSIEPQSQIITTSSNHSNALSPKIPIIPTELIGTSPLFQSIQNRGPDTQMDVPPQTAHDEDKTQAIGIPQATHQEQKTQIDTVAQTLQDEVPHTLKIREIQSELASEDSKREKARNVEYKKPQKPIPTKKFFSKESFLADFDDSSSNEDDDIKLENAHPKPVQNDDELHENKSVELNLTDETRINEKRVPLLSSYANNLKREIDSSKCITLDLDSDSDEYGDDDMDSIKLSKDESVLPISQLSKATILNLKARLSKQNQKLSQRPNKSKDPKVDHNVLLNTLRKASRKQILDHQKEVIETKGLKLEDMAKEKEIVENLLEQEILRNKRIRQKEKRREKLEENDFQLNAHDSGSDSGSESSGFALSGNEIADYESSGSENDNRRESDSEKEDDEIILKQKKSHHVKHIINESDSDTEVEAKPKEKADESLPKRIAINLGHYGDNIGEDTDKFQETNVLDTQNIEEVMAERNTIENEVKDDVYVNEEADEAIRRQLIDKEKLQLKQKEKEHEAKIKELKKRGVTNFFEMEAEESEDEWHGIGGADGEGSDDYDSDLEKMIDDYSKNNFNPHEIREMLAAENKEMDIKMINKILYDIKNGGFRNKRAKNSLELELSDDDEDDVLQQYRLKRRELMRKRRLEIGDDAKLVKNPKSSAFFESMVEDIIEYKNPFGAEEEYNLDITSTATDLDTQDNSINVGDNTGNNEQKPVDQKNKKVIISEDFVQKSLSFLKSNNYEDFETDKELSRIQHGNDEAIEDLYTLKQNSSIKSFTNSQTDSTTSKTVNTIIDLEKRPEDEDEVENGDTSLVGVFKHPSIIKSFASRTDINDKFKEGNKTVKILKSYKTVGSSKASITYMGKTRKLIAPKRKTEGSHRYHHDHHNKKMKMKTKTKSNKLFESGQDSFDN
B2: Swi6 (protein, UniProt P09959 1-803)
chain: MALEEVVRYLGPHNEIPLTLTRDSETGHFLLKHFLPILQQYHDTGNINETNPDSFPTDEERNKLLAHYGIAVNTDDRGELWIELEKCLQLLNMLNLFGLFQDAFEFEEPETDQDEEDPSHSKLPENKTKSENSKDNISSKRINNLQDMSLDSDAHRELGSPLKKLKIDTSVIDAESDSTPNTARGKPNDDINKGPSGDNENNGTDDNDRTAGPIITFTHDLTSDFLSSPLKIMKALPSPVVNDNEQKMKLEAFLQRLLFPEIQEMPTSLNNDSSNRNSEGGSSNQQQQHVSFDSLLQEVNDAFPNTQLNLNIPVDEHGNTPLHWLTSIANLELVKHLVKHGSNRLYGDNMGESCLVKAVKSVNNYDSGTFEALLDYLYPCLILEDSMNRTILHHIIITSGMTGCSAAAKYYLDILMGWIVKKQNRPIQSGTNEKESKPNDKNGERKDSILENLDLKWIIANMLNAQDSNGDTCLNIAARLGNISIVDALLDYGADPFIANKSGLRPVDFGAGTSKLQNTNGGDENSKMVSKGDYDGQKNGKAKKIRSQLLKNPPETTSLINDVQNLLNSISKDYENETVQYNEKLEKLHKELNEQREELANSREQLANVKQLKDEYSLMQEQLTNLKAGIEEEEESFREESKKLGIIADESSGIDWDSSEYDADEPFKVEFLSDFLEDKLQKNYEGDISKLLEAESKEQIMEQIRNQLPAEKIQSMLPPTVLLKARINAYKRNDKHLTNVLDTISTKQSELENKFRRVLSLCLKIDENKVDNMLDGLLQAISSEDPQDIDTDEMQDFLKKHAS
B3: Pol1, the DNA polymerase subunit of Pol α (protein, UniProt P13382 1-1468)
chain: MSSKSEKLEKLRKLQAARNGTSIDDYEGDESDGDRIYDEIDEKEYRARKRQELLHDDFVVDDDGVGYVDRGVEEDWREVDNSSSDEDTGNLASKDSKRKKNIKREKDHQITDMLRTQHSKSTLLAHAKKSQKKSIPIDNFDDILGEFESGEVEKPNILLPSKLRENLNSSPTSEFKSSIKRVNGNDESSHDAGISKKVKIDPDSSTDKYLEIESSPLKLQSRKLRYANDVQDLLDDVENSPVVATKRQNVLQDTLLANPPSAQSLADEEDDEDSDEDIILKRRTMRSVTTTRRVNIDSRSNPSTSPFVTAPGTPIGIKGLTPSKSLQSNTDVATLAVNVKKEDVVDPETDTFQMFWLDYCEVNNTLILFGKVKLKDDNCVSAMVQINGLCRELFFLPREGKTPTDIHEEIIPLLMDKYGLDNIRAKPQKMKYSFELPDIPSESDYLKVLLPYQTPKSSRDTIPSDLSSDTFYHVFGGNSNIFESFVIQNRIMGPCWLDIKGADFNSIRNASHCAVEVSVDKPQNITPTTTKTMPNLRCLSLSIQTLMNPKENKQEIVSITLSAYRNISLDSPIPENIKPDDLCTLVRPPQSTSFPLGLAALAKQKLPGRVRLFNNEKAMLSCFCAMLKVEDPDVIIGHRLQNVYLDVLAHRMHDLNIPTFSSIGRRLRRTWPEKFGRGNSNMNHFFISDICSGRLICDIANEMGQSLTPKCQSWDLSEMYQVTCEKEHKPLDIDYQNPQYQNDVNSMTMALQENITNCMISAEVSYRIQLLTLTKQLTNLAGNAWAQTLGGTRAGRNEYILLHEFSRNGFIVPDKEGNRSRAQKQRQNEENADAPVNSKKAKYQGGLVFEPEKGLHKNYVLVMDFNSLYPSIIQEFNICFTTVDRNKEDIDELPSVPPSEVDQGVLPRLLANLVDRRREVKKVMKTETDPHKRVQCDIRQQALKLTANSMYGCLGYVNSRFYAKPLAMLVTNKGREILMNTRQLAESMNLLVVYGDTDSVMIDTGCDNYADAIKIGLGFKRLVNERYRLLEIDIDNVFKKLLLHAKKKYAALTVNLDKNGNGTTVLEVKGLDMKRREFCPLSRDVSIHVLNTILSDKDPEEALQEVYDYLEDIRIKVETNNIRIDKYKINMKLSKDPKAYPGGKNMPAVQVALRMRKAGRVVKAGSVITFVITKQDEIDNAADTPALSVAERAHALNEVMIKSNNLIPDPQYYLEKQIFAPVERLLERIDSFNVVRLSEALGLDSKKYFRREGGNNNGEDINNLQPLETTITDVERFKDTVTLELSCPSCDKRFPFGGIVSSNYYRVSYNGLQCKHCEQLFTPLQLTSQIEHSIRAHISLYYAGWLQCDDSTCGIVTRQVSVFGKRCLNDGCTGVMRYKYSDKQLYNQLLYFDSLFDCEKNKKQELKPIYLPDDLDYPKEQLTESSIKALTEQNRELMETGRSVVQKYLNDCGRRYVDMTSIFDFMLN

Experiments:
[1] = target: Rad53-TurboID (542) (S. cerevisiae) (UniProt P22216); assay: proximity labelling; TurboID biotinylation in living yeast, with and without 200 mM HU, rad53-TurboID against untagged RAD53; streptavidin purification from whole cell extracts and from chromatin-enriched lysates; mass spectrometry with label-free quantification
[2] = target: Rad53-TurboID (542) (S. cerevisiae) (UniProt P22216); assay: proximity labelling; TurboID biotinylation in living yeast released from G1 into a normal S-phase (no HU); denatured lysate, biotinylated proteins purified on streptavidin magnetic beads, western blot of the bound fraction
[3] = target: Rad53-TurboID (542) (S. cerevisiae) (UniProt P22216); assay: proximity labelling; TurboID biotinylation in living yeast released from G1 into S-phase with 200 mM HU; denatured lysate, biotinylated proteins purified on streptavidin magnetic beads, western blot of the bound fraction

Molecule	binding [1]	binding [2]	binding [3]
Net1 (from UniProt P47035 1-1189)	binds		
actin (from UniProt P60010 1-375)		no binding	
B1	binds	no binding (only S-phase cells without HU)	binds
B2	binds		
B3	binds		

These are yes or no findings as the source states them, for the method shown. Binding seen in cells or lysates may run through a third protein. Here binding means that the protein was enriched with, or labelled near, the bait; the list need not be complete. For some of these results: No binding means not detected with the bait.
